From PMC3046137
These are yes or no findings as the source states them, for the method shown. In cells and extracts the contact can be indirect. These calls come from enrichment with a bait or labelling near it, and not all partners need be listed. Sequences can lack the tags named with a protein.

Chains of the proteins cited; added tags and fusions are not shown.
UniProt P40337: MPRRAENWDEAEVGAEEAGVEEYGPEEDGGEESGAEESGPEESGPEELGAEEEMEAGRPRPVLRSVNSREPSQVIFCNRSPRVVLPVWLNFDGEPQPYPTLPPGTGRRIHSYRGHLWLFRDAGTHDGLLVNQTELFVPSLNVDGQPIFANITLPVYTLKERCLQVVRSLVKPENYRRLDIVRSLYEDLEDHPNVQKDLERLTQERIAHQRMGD
UniProt Q15370: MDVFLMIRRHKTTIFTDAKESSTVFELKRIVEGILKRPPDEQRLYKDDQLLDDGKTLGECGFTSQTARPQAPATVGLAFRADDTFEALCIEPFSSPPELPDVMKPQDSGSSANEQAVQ

Biological target: T1, FLAG-p160 (Myb-binding protein p160) (UniProt Q7TPV4)
T1 sequence: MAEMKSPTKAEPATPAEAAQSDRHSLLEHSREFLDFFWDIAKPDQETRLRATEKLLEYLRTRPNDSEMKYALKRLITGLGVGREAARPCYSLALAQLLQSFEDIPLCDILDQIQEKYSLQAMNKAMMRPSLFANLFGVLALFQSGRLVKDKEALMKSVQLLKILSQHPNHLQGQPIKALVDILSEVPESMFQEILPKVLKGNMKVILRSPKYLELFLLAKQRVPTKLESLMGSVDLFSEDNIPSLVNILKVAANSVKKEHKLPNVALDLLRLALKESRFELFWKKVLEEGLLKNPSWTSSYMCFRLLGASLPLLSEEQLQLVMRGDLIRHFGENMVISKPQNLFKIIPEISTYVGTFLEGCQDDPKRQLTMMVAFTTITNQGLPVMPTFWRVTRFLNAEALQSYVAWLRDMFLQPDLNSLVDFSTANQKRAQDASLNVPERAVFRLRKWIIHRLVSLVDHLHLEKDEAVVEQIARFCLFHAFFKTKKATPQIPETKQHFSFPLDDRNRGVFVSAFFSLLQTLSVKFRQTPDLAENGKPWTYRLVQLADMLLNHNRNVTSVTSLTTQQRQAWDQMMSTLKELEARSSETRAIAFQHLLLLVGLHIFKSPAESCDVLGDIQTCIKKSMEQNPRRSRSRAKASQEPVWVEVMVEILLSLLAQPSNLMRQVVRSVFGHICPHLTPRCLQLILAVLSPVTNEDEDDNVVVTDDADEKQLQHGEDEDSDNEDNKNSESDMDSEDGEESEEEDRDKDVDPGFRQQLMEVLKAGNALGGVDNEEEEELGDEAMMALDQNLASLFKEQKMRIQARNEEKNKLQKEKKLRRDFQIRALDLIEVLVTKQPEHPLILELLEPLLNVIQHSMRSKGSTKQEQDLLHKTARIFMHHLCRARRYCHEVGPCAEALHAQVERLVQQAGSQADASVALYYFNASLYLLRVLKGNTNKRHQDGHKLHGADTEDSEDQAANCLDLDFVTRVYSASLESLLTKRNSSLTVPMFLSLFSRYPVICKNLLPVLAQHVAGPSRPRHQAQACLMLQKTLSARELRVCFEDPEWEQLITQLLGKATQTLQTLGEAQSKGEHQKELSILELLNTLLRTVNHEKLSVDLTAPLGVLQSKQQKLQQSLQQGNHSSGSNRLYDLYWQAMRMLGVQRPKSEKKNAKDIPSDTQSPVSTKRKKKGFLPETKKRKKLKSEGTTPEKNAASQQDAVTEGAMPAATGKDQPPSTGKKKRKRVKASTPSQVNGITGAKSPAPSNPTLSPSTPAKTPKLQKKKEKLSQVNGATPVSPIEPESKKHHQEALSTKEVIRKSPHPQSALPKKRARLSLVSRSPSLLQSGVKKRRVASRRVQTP
Experiment: affinity purification with mass spectrometry; anti-FLAG immunoprecipitation of FLAG-p160 from transfected 293T cells under non-denaturing conditions; compared with FLAG empty vector immunoprecipitate by ICAT quantitative proteomics (IP-ICAT)

Row | binding | Substance
1 | binds | VHL (endogenous, 293T cells) (from UniProt P40337 1-213)
2 | binds | elongin B (endogenous, 293T cells) (from UniProt Q15370 1-118)
